± gives the standard deviation of the averaged measurements. The list shows a part of the results.
Compound: Nc1nc2c(ncn2[C@@H]2O[C@H](COP(=O)(O)OP(=O)(O)OP(=O)(O)O)[C@@H](O)[C@H]2O)c(=O)[nH]1 [guanosine triphosphate]
Assay: NP40-soluble protein abundance relative to vehicle (solubility fold change) (ratio); higher = more soluble protein in presence of GTP
In short: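 Values are fold changes against the detergent-processed vehicle, based on vsn-normalised intensities. Jurkat crude lysate was treated at eight concentrations from 0.1 to 10 mM (10 min at room temperature, then 3 min at 37 °C), solubilised with 0.8% NP40 and benzonase, ultracentrifuged and analysed by TMT-labelled LC-MS/MS over three independent experiments.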

Sequences of proteins named here, by UniProt entry; tags and fusion partners are left off. A change or cut given only in a name is not applied to a line headed by its entry.
UniProt Q96CM8: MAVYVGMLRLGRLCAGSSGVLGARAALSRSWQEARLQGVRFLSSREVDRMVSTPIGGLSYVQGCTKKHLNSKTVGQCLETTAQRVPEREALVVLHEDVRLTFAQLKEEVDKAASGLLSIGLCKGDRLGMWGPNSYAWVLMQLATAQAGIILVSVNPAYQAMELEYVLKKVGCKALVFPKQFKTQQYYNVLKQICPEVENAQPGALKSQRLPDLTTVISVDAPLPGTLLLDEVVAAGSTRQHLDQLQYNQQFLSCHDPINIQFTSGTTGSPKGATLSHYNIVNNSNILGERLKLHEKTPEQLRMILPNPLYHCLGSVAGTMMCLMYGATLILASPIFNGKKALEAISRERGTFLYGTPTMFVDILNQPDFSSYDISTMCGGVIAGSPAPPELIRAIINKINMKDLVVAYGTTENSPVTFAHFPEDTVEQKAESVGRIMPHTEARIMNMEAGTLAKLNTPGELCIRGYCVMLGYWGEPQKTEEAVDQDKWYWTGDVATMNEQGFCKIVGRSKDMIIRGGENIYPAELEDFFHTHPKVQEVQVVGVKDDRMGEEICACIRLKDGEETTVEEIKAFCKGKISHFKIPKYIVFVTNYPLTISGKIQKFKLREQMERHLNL
UniProt P27816: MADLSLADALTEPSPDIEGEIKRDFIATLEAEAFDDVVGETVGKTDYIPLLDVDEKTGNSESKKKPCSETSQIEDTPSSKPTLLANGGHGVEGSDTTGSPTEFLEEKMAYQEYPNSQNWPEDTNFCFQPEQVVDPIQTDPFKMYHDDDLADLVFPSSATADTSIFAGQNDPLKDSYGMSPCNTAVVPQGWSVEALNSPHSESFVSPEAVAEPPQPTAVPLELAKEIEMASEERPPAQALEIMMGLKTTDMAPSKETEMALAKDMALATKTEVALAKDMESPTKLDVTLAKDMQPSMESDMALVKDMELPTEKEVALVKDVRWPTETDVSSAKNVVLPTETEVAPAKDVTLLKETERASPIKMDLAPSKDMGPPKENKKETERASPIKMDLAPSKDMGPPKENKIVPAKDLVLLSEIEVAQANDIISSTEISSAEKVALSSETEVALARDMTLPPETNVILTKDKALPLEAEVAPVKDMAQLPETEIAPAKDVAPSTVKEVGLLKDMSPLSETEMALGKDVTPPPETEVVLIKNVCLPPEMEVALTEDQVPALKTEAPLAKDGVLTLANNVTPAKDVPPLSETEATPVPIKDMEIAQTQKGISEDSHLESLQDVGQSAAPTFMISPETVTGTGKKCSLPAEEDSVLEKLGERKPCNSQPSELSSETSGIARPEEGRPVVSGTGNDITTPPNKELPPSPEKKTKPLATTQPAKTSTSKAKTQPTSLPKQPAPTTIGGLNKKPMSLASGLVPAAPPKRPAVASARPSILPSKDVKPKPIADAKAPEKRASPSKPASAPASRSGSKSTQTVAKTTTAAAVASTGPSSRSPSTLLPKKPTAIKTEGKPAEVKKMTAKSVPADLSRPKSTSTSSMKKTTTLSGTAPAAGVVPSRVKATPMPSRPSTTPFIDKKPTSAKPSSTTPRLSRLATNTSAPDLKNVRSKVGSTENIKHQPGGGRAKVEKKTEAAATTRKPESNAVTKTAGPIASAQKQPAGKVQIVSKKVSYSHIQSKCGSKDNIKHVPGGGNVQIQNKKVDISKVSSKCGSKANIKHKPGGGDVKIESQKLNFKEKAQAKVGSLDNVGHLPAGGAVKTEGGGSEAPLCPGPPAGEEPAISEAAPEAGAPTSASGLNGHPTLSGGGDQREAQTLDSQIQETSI
UniProt Q9NYF8, whole entry: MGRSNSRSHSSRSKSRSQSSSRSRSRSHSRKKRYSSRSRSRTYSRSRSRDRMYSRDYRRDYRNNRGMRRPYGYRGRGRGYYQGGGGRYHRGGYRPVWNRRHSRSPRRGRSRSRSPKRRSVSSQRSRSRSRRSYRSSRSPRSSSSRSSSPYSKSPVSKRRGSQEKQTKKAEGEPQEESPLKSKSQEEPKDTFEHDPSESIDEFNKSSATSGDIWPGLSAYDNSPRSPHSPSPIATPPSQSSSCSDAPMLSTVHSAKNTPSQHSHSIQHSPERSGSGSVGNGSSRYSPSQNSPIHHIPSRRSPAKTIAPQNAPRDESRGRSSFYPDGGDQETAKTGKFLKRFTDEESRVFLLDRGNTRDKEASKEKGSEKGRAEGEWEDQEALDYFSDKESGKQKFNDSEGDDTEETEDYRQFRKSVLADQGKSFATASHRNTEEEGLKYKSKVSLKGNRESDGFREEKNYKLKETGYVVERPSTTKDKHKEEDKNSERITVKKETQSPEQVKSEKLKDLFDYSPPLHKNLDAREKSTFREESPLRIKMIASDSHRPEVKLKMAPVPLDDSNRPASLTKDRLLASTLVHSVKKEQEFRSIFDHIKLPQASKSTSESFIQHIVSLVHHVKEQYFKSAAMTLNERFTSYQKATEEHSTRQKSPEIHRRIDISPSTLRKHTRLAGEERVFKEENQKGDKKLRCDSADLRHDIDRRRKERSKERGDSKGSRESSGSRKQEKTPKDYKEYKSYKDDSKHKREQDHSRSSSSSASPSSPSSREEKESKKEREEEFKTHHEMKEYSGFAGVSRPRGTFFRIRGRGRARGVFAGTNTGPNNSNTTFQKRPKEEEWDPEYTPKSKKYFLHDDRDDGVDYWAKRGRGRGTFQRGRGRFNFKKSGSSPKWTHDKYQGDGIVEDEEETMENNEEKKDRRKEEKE
UniProt O00559: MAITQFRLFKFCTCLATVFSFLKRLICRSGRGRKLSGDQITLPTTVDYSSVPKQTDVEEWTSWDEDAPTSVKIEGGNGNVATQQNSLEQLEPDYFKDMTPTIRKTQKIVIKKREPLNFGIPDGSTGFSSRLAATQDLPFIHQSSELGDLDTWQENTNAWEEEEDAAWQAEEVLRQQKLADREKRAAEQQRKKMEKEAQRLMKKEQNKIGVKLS
UniProt P12694: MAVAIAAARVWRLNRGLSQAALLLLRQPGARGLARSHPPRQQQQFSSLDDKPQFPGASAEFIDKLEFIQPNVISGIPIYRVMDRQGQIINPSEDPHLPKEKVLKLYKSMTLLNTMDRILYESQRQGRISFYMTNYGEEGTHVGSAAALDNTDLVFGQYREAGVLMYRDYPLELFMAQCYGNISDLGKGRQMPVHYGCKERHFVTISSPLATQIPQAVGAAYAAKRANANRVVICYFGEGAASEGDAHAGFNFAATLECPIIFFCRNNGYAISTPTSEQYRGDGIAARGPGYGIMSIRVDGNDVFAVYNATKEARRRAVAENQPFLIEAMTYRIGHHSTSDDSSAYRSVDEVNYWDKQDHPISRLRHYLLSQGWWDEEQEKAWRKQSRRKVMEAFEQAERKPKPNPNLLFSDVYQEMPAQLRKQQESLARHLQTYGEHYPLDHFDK
UniProt Q15629: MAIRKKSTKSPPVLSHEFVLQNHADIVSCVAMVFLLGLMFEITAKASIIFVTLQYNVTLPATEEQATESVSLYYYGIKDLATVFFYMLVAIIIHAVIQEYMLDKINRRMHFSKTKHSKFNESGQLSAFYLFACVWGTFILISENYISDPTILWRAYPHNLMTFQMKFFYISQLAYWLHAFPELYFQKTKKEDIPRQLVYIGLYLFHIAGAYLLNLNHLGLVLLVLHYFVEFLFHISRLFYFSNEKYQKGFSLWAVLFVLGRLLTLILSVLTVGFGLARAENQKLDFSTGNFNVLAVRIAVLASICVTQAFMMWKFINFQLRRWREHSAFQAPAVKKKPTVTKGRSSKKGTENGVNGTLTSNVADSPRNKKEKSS
UniProt Q13509, whole entry: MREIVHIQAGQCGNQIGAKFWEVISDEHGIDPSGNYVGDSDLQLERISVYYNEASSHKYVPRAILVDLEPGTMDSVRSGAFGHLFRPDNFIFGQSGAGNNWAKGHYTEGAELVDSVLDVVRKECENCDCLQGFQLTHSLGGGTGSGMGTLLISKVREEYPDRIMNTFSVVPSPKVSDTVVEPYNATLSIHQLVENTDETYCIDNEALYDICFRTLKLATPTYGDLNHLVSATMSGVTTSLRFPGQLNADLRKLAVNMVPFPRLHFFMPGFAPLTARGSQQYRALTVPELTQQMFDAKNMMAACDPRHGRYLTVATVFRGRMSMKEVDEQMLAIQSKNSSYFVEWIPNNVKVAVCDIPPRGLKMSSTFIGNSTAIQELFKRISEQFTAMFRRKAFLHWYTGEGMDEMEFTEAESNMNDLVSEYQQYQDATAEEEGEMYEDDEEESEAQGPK
UniProt P18887, whole entry: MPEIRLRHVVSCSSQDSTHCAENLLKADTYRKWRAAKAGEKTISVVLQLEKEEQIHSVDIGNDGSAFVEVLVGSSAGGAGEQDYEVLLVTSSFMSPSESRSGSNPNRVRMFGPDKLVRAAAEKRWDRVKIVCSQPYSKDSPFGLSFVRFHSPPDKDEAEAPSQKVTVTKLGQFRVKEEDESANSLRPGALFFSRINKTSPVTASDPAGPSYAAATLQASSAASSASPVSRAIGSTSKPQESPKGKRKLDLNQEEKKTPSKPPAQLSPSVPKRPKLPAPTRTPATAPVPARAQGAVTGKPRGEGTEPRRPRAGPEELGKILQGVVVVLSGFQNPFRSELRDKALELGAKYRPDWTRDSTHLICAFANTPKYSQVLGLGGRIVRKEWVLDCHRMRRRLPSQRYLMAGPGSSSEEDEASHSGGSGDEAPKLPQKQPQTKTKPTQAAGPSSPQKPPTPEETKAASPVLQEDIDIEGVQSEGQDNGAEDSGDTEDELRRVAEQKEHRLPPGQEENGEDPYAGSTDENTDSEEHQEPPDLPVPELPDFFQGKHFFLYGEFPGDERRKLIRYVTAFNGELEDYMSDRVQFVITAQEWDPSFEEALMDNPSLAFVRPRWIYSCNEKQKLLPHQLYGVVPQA
UniProt Q6NWY9: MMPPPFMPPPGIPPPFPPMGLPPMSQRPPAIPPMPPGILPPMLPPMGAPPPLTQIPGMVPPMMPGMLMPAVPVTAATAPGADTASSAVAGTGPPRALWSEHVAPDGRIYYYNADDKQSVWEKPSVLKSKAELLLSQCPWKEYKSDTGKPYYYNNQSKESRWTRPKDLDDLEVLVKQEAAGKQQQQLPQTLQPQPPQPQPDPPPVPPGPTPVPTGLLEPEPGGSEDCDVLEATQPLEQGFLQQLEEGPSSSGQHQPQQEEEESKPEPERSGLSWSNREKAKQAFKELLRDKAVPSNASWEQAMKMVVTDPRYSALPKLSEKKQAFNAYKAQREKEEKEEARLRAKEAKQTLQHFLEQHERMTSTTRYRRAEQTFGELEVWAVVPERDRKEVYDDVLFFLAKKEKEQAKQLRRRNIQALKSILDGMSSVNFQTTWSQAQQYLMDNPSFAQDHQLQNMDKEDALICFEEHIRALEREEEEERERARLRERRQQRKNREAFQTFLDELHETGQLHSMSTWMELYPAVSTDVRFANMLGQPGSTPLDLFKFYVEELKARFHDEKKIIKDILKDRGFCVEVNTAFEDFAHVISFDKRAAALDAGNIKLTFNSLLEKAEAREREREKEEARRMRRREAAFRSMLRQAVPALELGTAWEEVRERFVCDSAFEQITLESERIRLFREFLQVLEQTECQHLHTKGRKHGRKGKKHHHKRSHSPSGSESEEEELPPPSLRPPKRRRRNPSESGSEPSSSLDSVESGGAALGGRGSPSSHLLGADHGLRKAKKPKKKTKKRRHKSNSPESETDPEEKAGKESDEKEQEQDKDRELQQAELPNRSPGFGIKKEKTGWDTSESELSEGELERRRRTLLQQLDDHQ
UniProt Q06609, whole entry: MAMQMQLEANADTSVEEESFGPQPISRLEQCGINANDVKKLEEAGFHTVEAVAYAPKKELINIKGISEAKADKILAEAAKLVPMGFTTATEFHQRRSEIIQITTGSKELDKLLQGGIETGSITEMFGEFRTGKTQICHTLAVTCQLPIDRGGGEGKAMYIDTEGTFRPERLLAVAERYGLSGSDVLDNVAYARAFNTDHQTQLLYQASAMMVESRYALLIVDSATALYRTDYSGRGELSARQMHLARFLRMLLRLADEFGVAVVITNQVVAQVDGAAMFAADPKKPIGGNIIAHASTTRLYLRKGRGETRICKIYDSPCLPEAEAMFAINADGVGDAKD
UniProt O43427: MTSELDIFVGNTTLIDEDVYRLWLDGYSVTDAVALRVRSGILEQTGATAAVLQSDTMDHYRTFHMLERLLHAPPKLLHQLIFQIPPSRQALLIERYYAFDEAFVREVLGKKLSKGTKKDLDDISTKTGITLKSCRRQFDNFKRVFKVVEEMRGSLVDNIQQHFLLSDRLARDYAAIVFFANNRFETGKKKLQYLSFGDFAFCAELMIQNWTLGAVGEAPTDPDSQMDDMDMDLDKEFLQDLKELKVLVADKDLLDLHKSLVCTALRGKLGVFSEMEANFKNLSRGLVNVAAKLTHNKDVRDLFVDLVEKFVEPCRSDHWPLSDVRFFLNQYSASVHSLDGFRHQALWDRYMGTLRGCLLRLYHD
UniProt O14683: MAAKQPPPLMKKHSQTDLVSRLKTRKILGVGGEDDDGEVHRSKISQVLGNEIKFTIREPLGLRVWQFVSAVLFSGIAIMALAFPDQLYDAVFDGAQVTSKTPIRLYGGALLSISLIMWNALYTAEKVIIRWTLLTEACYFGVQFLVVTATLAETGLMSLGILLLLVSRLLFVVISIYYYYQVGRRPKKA

Target | NP40-soluble protein abundance (concentration: 0.1mM) | NP40-soluble protein abundance (concentration: 0.5mM) | NP40-soluble protein abundance (concentration: 1mM) | NP40-soluble protein abundance (concentration: 2mM) | NP40-soluble protein abundance (concentration: 4mM) | NP40-soluble protein abundance (concentration: 6mM) | NP40-soluble protein abundance (concentration: 8mM) | NP40-soluble protein abundance (concentration: 10mM)
E9PF16 and related entries (UniProt Q96CM8) | 1.06 ± 0.054 | 1.03 ± 0.059 | 0.9887 ± 0.0092 | 0.943 ± 0.057 | 0.965 ± 0.055 | 0.92 ± 0.024 | 0.924 ± 0.027 | 0.89 ± 0.018
E7ERU0 and related entries (UniProt Q03001) | 1.03 ± 0.2 | 1.03 ± 0.22 | 0.991 ± 0.12 | 1.01 ± 0.29 | 0.99 ± 0.3 | 0.935 ± 0.19 | 0.947 ± 0.12 | 0.966 ± 0.18
E7EVA0 and related entries (UniProt P27816) | 0.927 ± 0.06 | 0.933 ± 0.077 | 0.957 ± 0.094 | 0.915 ± 0.12 | 0.92 ± 0.12 | 0.955 ± 0.14 | 1.01 ± 0.1 | 0.994 ± 0.12
E9PK91 and related entries (UniProt Q9NYF8) | 1.01 ± 0.062 | 1.1 ± 0.097 | 1.19 ± 0.059 | 1.24 ± 0.1 | 1.31 ± 0.076 | 1.42 ± 0.099 | 1.57 ± 0.15 | 1.7 ± 0.21
E9PN10 and related entries (UniProt O00559) | 0.948 ± 0.1 | 0.876 ± 0.11 | 0.902 ± 0.1 | 0.93 ± 0.13 | 0.858 ± 0.024 | 0.833 ± 0.11 | 0.901 ± 0.028 | 0.926 ± 0.087
F5H5P2 and related entries (UniProt P12694+F5H5P2) | 1.01 ± 0.061 | 0.969 ± 0.053 | 0.975 ± 0.017 | 1.01 ± 0.042 | 1.11 ± 0.05 | 1.12 ± 0.082 | 1.12 ± 0.11 | 1.08 ± 0.021
G3XAN4 and related entries (UniProt Q15629) | 0.776 ± 0.028 | 0.785 ± 0.098 | 0.911 ± 0.14 | 0.819 ± 0.16 | 0.8 ± 0.15 | 0.783 ± 0.23 | 0.898 ± 0.19 | 0.905 ± 0.16
F5GZ97 and related entries (UniProt Q9Y3C0) | 0.987 ± 0.074 | 0.942 ± 0.073 | 1.12 ± 0.1 | 1.08 ± 0.039 | 1.135 ± 0.0065 | 1.13 ± 0.019 | 1.05 ± 0.093 | 1.12 ± 0.066
G3V542 and related entries (UniProt Q13509) | 0.911 ± 0.025 | 1 ± 0.024 | 1 ± 0.099 | 1.02 ± 0.096 | 1.06 ± 0.025 | 0.919 ± 0.031 | 0.934 ± 0.073 | 0.9579 ± 0.0074
E9PEQ6 and related entries (UniProt Q9UNP9) | 0.954 ± 0.041 | 1.03 ± 0.058 | 0.971 ± 0.07 | 0.964 ± 0.049 | 0.936 ± 0.051 | 0.954 ± 0.041 | 0.985 ± 0.022 | 0.957 ± 0.051
F5H8D7 and related entries (UniProt P18887) | 0.976 ± 0.073 | 1.02 ± 0.085 | 1.04 ± 0.081 | 1 ± 0.1 | 1.03 ± 0.098 | 1.06 ± 0.1 | 1.13 ± 0.1 | 1.1 ± 0.12
F8VU11 and related entries (UniProt Q6NWY9) | 0.998 ± 0.25 | 1.1 ± 0.27 | 1.03 ± 0.22 | 1.15 ± 0.35 | 1.21 ± 0.41 | 1.24 ± 0.39 | 1.32 ± 0.52 | 1.18 ± 0.37
E9PF58 and related entries (UniProt Q92747) | 1.05 ± 0.08 | 1.1 ± 0.17 | 0.937 ± 0.084 | 0.991 ± 0.14 | 0.994 ± 0.13 | 0.964 ± 0.13 | 0.96 ± 0.042 | 0.903 ± 0.11
E7ETU7 and related entries (UniProt P09001) | 1.09 ± 0.086 | 1.25 ± 0.31 | 1.31 ± 0.49 | 1.39 ± 0.54 | 1.3 ± 0.44 | 1.33 ± 0.5 | 1.33 ± 0.53 | 1.2 ± 0.59
E9PI54 and related entries (UniProt Q06609) | 1.02 ± 0.022 | 1.06 ± 0.028 | 0.9765 ± 0.0041 | 0.987 ± 0.04 | 0.946 ± 0.031 | 0.966 ± 0.027 | 0.97 ± 0.033 | 0.945 ± 0.0031
E9PSD3 and related entries (UniProt O43427) | 1.06 ± 0.054 | 1.08 ± 0.083 | 0.964 ± 0.082 | 1.01 ± 0.11 | 0.946 ± 0.077 | 1 ± 0.061 | 0.952 ± 0.058 | 0.934 ± 0.049
E9PIK4 and related entries (UniProt O14683) | 1.02 ± 0.082 | 0.995 ± 0.038 | 0.959 ± 0.044 | 0.934 ± 0.034 | 0.966 ± 0.059 | 0.891 ± 0.013 | 0.901 ± 0.031 | 0.876 ± 0.043
